Measurements reported in PubChem BioAssay AID743121 (NCATS, 2013).

Purpose: 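Partners whose loss is lethal together with topoisomerase I blockade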 (primary screen)
Cell system: MDA-MB-231 cells, a human breast cancer line
Reagents: single siRNA against human genes, 20 nM siRNA (0.8 pmol per well)
Time to read-out: 120 h (drug added 48 h after transfection, read 72 h later)
Challenge: camptothecin 20 nM (about EC30) for 72 h; vehicle 0.1% DMSO in parallel plates
Detection: 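Cell viability by ATP luminescence (CellTiter-Glo) as % of non-targeting siRNA wells, and the log2 ratio of viability without drug over viability with camptothecin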
Reading the numbers: log2 vehicle/camptothecin viability: higher = stronger sensitisation to camptothecin
Hit rule: 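Active genes have an RSA gene-level p-value below 0.001, computed from the ratios of their separate siRNAs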
In all, the deposit lists about 26,000 reagents; this is a part drawn at random. 167 of all reagents (0.63%) were called active. 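Calls are per gene from RSA p-values that are not deposited; an individual active-marked siRNA can sensitise only weakly.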 Reagents against one gene are numbered here. Not all columns of the deposit are shown.

EGLN2 #1 → log2 vehicle/camptothecin viability: -0.302; Outcome: inactive
EGLN2 #2 → log2 vehicle/camptothecin viability: -0.354; Outcome: inactive
EGLN2 #3 → log2 vehicle/camptothecin viability: -0.294; Outcome: inactive
KREMEN2 #1 → log2 vehicle/camptothecin viability: -0.593; Outcome: inactive
KREMEN2 #2 → log2 vehicle/camptothecin viability: -0.203; Outcome: inactive
KREMEN2 #3 → log2 vehicle/camptothecin viability: 0.424; Outcome: inactive
ADCY9 #1 → log2 vehicle/camptothecin viability: -0.262; Outcome: inactive
ADCY9 #2 → log2 vehicle/camptothecin viability: -0.00221; Outcome: inactive
ADCY9 #3 → log2 vehicle/camptothecin viability: -0.177; Outcome: inactive
ADCY9 #4 → log2 vehicle/camptothecin viability: -0.266; Outcome: inactive
MUSK #1 → log2 vehicle/camptothecin viability: -0.0106; Outcome: inactive
MUSK #2 → log2 vehicle/camptothecin viability: 0.0614; Outcome: inactive
MUSK #3 → log2 vehicle/camptothecin viability: 0.282; Outcome: inactive
MUSK #4 → log2 vehicle/camptothecin viability: 0.0378; Outcome: inactive
BACE2 #1 → log2 vehicle/camptothecin viability: -0.219; Outcome: inactive
BACE2 #2 → log2 vehicle/camptothecin viability: 0.572; Outcome: inactive
BACE2 #3 → log2 vehicle/camptothecin viability: -0.393; Outcome: inactive
BACE2 #4 → log2 vehicle/camptothecin viability: -0.217; Outcome: inactive
TMPRSS9 #1 → log2 vehicle/camptothecin viability: 0.0641; Outcome: inactive
TMPRSS9 #2 → log2 vehicle/camptothecin viability: -0.0656; Outcome: inactive
TMPRSS9 #3 → log2 vehicle/camptothecin viability: -0.241; Outcome: inactive
TMPRSS9 #4 → log2 vehicle/camptothecin viability: 0.0686; Outcome: inactive
ANGPTL3 #1 → log2 vehicle/camptothecin viability: -0.606; Outcome: inactive
ANGPTL3 #2 → log2 vehicle/camptothecin viability: -0.156; Outcome: inactive
ANGPTL3 #3 → log2 vehicle/camptothecin viability: -0.174; Outcome: inactive
ANGPTL3 #4 → log2 vehicle/camptothecin viability: 0.187; Outcome: inactive
ASB4 #1 → log2 vehicle/camptothecin viability: 0.356; Outcome: inactive
ASB4 #2 → log2 vehicle/camptothecin viability: -0.0477; Outcome: inactive
ASB4 #3 → log2 vehicle/camptothecin viability: -0.28; Outcome: inactive

Next part (2 carried over from the part before).
ASB4 #2 → log2 vehicle/camptothecin viability: -0.0477; Outcome: inactive
ASB4 #3 → log2 vehicle/camptothecin viability: -0.28; Outcome: inactive
TBC1D30 #1 → log2 vehicle/camptothecin viability: 0.286; Outcome: inactive
TBC1D30 #2 → log2 vehicle/camptothecin viability: -0.249; Outcome: inactive
TBC1D30 #3 → log2 vehicle/camptothecin viability: -0.193; Outcome: inactive
TBC1D30 #4 → log2 vehicle/camptothecin viability: -0.492; Outcome: inactive
ISYNA1 #1 → log2 vehicle/camptothecin viability: -0.378; Outcome: inactive
ISYNA1 #2 → log2 vehicle/camptothecin viability: 0.408; Outcome: inactive
ISYNA1 #3 → log2 vehicle/camptothecin viability: -0.194; Outcome: inactive
ISYNA1 #4 → log2 vehicle/camptothecin viability: -0.272; Outcome: inactive
PNLIP #1 → log2 vehicle/camptothecin viability: -0.393; Outcome: inactive
PNLIP #2 → log2 vehicle/camptothecin viability: 0.606; Outcome: inactive
PNLIP #3 → log2 vehicle/camptothecin viability: 0.314; Outcome: inactive
PNLIP #4 → log2 vehicle/camptothecin viability: -0.252; Outcome: inactive
SLCO1B3 #1 → log2 vehicle/camptothecin viability: -1.04; Outcome: inactive
SLCO1B3 #2 → log2 vehicle/camptothecin viability: -0.2; Outcome: inactive
SLCO1B3 #3 → log2 vehicle/camptothecin viability: 0.0123; Outcome: inactive
RNF182 #1 → log2 vehicle/camptothecin viability: 0.225; Outcome: inactive
RNF182 #2 → log2 vehicle/camptothecin viability: -0.254; Outcome: inactive
RNF182 #3 → log2 vehicle/camptothecin viability: -0.274; Outcome: inactive
RNF182 #4 → log2 vehicle/camptothecin viability: 0.041; Outcome: inactive
